Test results published in article PMC12043086.

How the values were obtained:
[1] = molecular target: active TGF-β dimer (mouse (endogenous in mouse skeletal muscle)); assay: affinity purification with mass spectrometry; co-IP with anti-TGF-β antibody (1D11) from WT and Col6a2–/– mouse muscle lysates; quantitative DIA mass spectrometry; n = 4 per genotype
[2] = molecular target: collagen VI (collagen type VI) (mouse (endogenous in mouse skeletal muscle)); assay: affinity purification with mass spectrometry; co-IP with anti-collagen VI antibody (Ab6588, raised against COL6A1) from WT mouse muscle lysates, Col6a2–/– muscle as negative control; quantitative DIA mass spectrometry; n = 5 per genotype

Row | Binder | binding [1] | binding [2]
1 | fibromodulin (protein, UniProt P50608 19-376) QYDEDSHWWIQYLRNQQSTYYDPYDPYPYEPSEPYPYGVEEGPAYAYGAPPPPEPRDCPQECDCPPNFPTAMYCDNRNLKYLPFVPSRMKYVYFQNNQISAIQEGVFDNATGLLWVALHGNQITSDKVGRKVFSKLRHLERLYLDHNNLTRMPGPLPRSLRELHLDHNQISRVPNNALEGLENLTALYLHHNEIQEVGSSMRGLRSLILLDLSYNHLRRVPDGLPSALEQLYLEHNNVYTVPDSYFRGSPKLLYVRLSHNSLTNNGLATNTFNSSSLLELDLSYNQLQKIPPVNTNLENLYLQGNRINEFSISSFCTVVDVMNFSKLQVLRLDGNEIKRSAMPVDAPLCLRLANLIEI |  | binds
2 | Mfap2 (Magp-1) (protein, UniProt P55002 17-183) QGQYDLDPLPPFPDHVQYNHYGDQIDNADYYDYQEVSPRTPEEQFQSQQQVQQEVIPAPTPEPAAAGDLETEPTEPGPLDCREEQYPCTRLYSIHKPCKQCLNEVCFYSLRRVYVVNKEICVRTVCAHEELLRADLCRDKFSKCGVMAVSGLCQSVAASCARSCGGC |  | binds
3 | Tgfbi (protein, UniProt P82198 24-683) GPAKSPYQLVLQHSRLRGRQHGPNVCAVQKVIGTNKKYFTNCKQWYQRKICGKSTVISYECCPGYEKVPGEKGCPAALPLSNLYETMGVVGSTTTQLYTDRTEKLRPEMEGPGSFTIFAPSNEAWSSLPAEVLDSLVSNVNIELLNALRYHMVDRRVLTDELKHGMTLTSMYQNSNIQIHHYPNGIVTVNCARLLKADHHATNGVVHLIDKVISTITNNIQQIIEIEDTFETLRAAVAASGLNTVLEGDGQFTLLAPTNEAFEKIPAETLNRILGDPEALRDLLNNHILKSAMCAEAIVAGMSMETLGGTTLEVGCSGDKLTINGKAVISNKDILATNGVIHFIDELLIPDSAKTLLELAGESDVSTAIDILKQAGLDTHLSGKEQLTFLAPLNSVFKDGVPRIDAQMKTLLLNHMVKEQLASKYLYSGQTLDTLGGKKLRVFVYRNSLCIENSCIAAHDKRGRFGTLFTMDRMLTPPMGTVMDVLKGDNRFSMLVAAIQSAGLMEILNREGVYTVFAPTNEAFQAMPPEELNKLLANAKELTNILKYHIGDEILVSGGIGALVRLKSLQGDKLEVSSKNNVVSVNKEPVAETDIMATNGVVYAINTVLQPPANRPQERGDELADSALEIFKQASAYSRAAQRSVRLAPVYQRLLERMKH |  | binds

Results, then the binder that gave them:

Row | binding [1] | binding [2] | Binder
4 | binds |  | biglycan (protein, UniProt P28653 38-369) DEEASGSDTTSGVPDLDSVTPTFSAMCPFGCHCHLRVVQCSDLGLKTVPKEISPDTTLLDLQNNDISELRKDDFKGLQHLYALVLVNNKISKIHEKAFSPLRKLQKLYISKNHLVEIPPNLPSSLVELRIHDNRIRKVPKGVFSGLRNMNCIEMGGNPLENSGFEPGAFDGLKLNYLRISEAKLTGIPKDLPETLNELHLDHNKIQAIELEDLLRYSKLYRLGLGHNQIRMIENGSLSFLPTLRELHLDNNKLSRVPAGLPDLKLLQVVYLHSNNITKVGINDFCPMGFGVKRAYYNGISLFNNPVPYWEVQPATFRCVTDRLAIQFGNYKK
5 |  | binds | Mfap5 (protein, UniProt Q9QZJ6 29-164) QRGDDVPETFTDDPNLVNDPSTDDTALADITPSTDDLAGDKNATAECRDEKFACTRLYSVHRPVRQCVHQSCFTSLRRMYIINNEICSRLVCKEHEAMKDELCRQMAGLPPRRLRRSNYFRLPPCENMNLQRPDGL

No constants are given. Whether binding was seen depends on the method and setting. Binding seen in cells or lysates may run through a third protein. Here binding means that the protein was enriched with, or labelled near, the bait; the list need not be complete.
